# Source: the supplement of paper PMC8728848
# The list shows a part of the results.
# B1: ERGIC1-EDTA (Homo sapiens), Q969X5 (protein)
# chain: MKFLVNVALVFMVVYISYIYAAAHMHHHHHHDYDIPTTENLYFQGSEVVNELYVDDPDKDSGGKIDVSLNISLPNLHCELVGLDIQDEMGRHEVGHIDNSMKIPLNNGAGCRFEGQFSINKVPGNFHVSTHSATAQPQNPDMTHVIHKLSFGDTLQVQNIHGAFNALGGADRLTSNPLASHDYILKIVPTVYEDKSGKQRYSYQYTVANKEYVAYSHTGRIIPAIWFRYDLSPITVKYTE
# Tests used:
# Assay in all cases: glycan array binding signal (z-score within array); higher = stronger binding
# Conditions in all cases: glycan notation: IUPAC condensed, linker removed
# [1] = target: Gal(b1-3)GlcNAc(b1-2)Man(a1-3)[Gal(b1-3)GlcNAc(b1-2)Man(a1-6)]Man(b1-4)GlcNAc(b1-4)GlcNAc
# How it was run: (§1)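 Columns mapping to the same glycan were averaged after glycan names were converted to IUPAC-condensed notation. The data come from 3228 arrays in the Consortium for Functional Glycomics database, limited to those with an available protein sequence. Binding is reported as a within-array Z-score averaged across arrays of one protein sequence and across linkers.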
# [2] = target: Gal(b1-3)GlcNAc(b1-2)Man(a1-3)[Gal(b1-3)GlcNAc(b1-2)Man(a1-6)]Man(b1-4)GlcNAc(b1-4)[Fuc(a1-6)]GlcNAc
# How it was run: as §1
# [3] = target: Gal(b1-3)GlcNAc(b1-2)Man(a1-3)[GlcNAc(b1-4)][Gal(b1-3)GlcNAc(b1-2)Man(a1-6)]Man(b1-4)GlcNAc(b1-4)GlcNAc
# How it was run: as §1
# [4] = target: Gal(b1-3)GlcNAc(b1-2)[Gal(b1-3)GlcNAc(b1-6)]Man(a1-6)[Gal(b1-3)GlcNAc(b1-2)Man(a1-3)]Man(b1-4)GlcNAc(b1-4)GlcNAc
# How it was run: as §1
# [5] = target: Gal(b1-3)GlcNAc(b1-3)Gal(b1-3)GlcNAc
# How it was run: as §1
# [6] = target: Gal(b1-3)GlcNAc(b1-3)Gal(b1-4)Glc
# How it was run: as §1
# [7] = target: Gal(b1-3)GlcNAc(b1-3)Gal(b1-4)GlcNAc
# How it was run: as §1
# [8] = target: Gal(b1-3)GlcNAc(b1-3)Gal(b1-4)GlcNAc(b1-2)Man(a1-3)[Gal(b1-3)GlcNAc(b1-3)Gal(b1-4)GlcNAc(b1-2)Man(a1-6)]Man(b1-4)GlcNAc(b1-4)GlcNAc
# How it was run: as §1
# [9] = target: Gal(b1-3)GlcNAc(b1-3)Gal(b1-4)GlcNAc(b1-2)[Gal(b1-3)GlcNAc(b1-3)Gal(b1-4)GlcNAc(b1-6)]Man(a1-6)[Gal(b1-3)GlcNAc(b1-3)Gal(b1-4)GlcNAc(b1-2)Man(a1-3)]Man(b1-4)GlcNAc(b1-4)[Fuc(a1-6)]GlcNAc
# How it was run: as §1
# [10] = target: Gal(b1-3)GlcNAc(b1-3)Gal(b1-4)GlcNAc(b1-3)Gal(b1-4)GlcNAc(b1-2)[Gal(b1-3)GlcNAc(b1-3)Gal(b1-4)GlcNAc(b1-3)Gal(b1-4)GlcNAc(b1-6)]Man(a1-6)[Gal(b1-3)GlcNAc(b1-3)Gal(b1-4)GlcNAc(b1-3)Gal(b1-4)GlcNAc(b1-2)Man(a1-3)]Man(b1-4)GlcNAc(b1-4)[Fuc(a1-6)]GlcNAc
# How it was run: as §1
# [11] = target: Gal(b1-3)GlcNAc(b1-3)Gal(b1-4)GlcNAc(b1-6)[Gal(b1-3)GlcNAc(b1-3)]Gal(b1-4)Glc
# How it was run: as §1
# [12] = target: Gal(b1-3)GlcNAc(b1-3)Gal(b1-4)[Fuc(a1-3)]GlcNAc
# How it was run: as §1
# [13] = target: Gal(b1-3)GlcNAc(b1-3)Gal(b1-4)[Fuc(a1-3)]GlcNAc(b1-6)[Gal(b1-3)GlcNAc(b1-3)]Gal(b1-4)Glc
# How it was run: as §1
# [14] = target: Gal(b1-3)GlcNAc(b1-3)GalNAc
# How it was run: as §1
# [15] = target: Gal(b1-3)GlcNAc(b1-6)Gal(b1-4)GlcNAc
# How it was run: as §1
# [16] = target: Gal(b1-3)GlcNAc(b1-6)GalNAc
# How it was run: as §1
# [17] = target: Gal(b1-3)GlcNAc(b1-6)[Gal(b1-3)]GalNAc
# How it was run: as §1
# Gal(b1-3)GlcNAc6S = target: Gal(b1-3)GlcNAc6S
# How it was run: as §1
# [18] = target: Gal(b1-3)[Fuc(a1-4)]GlcNAc
# How it was run: as §1
# [19] = target: Gal(b1-3)[Fuc(a1-4)]GlcNAc(b1-2)Man
# How it was run: as §1
# [20] = target: Gal(b1-3)[Fuc(a1-4)]GlcNAc(b1-2)Man(a1-3)[Gal(b1-3)[Fuc(a1-4)]GlcNAc(b1-2)Man(a1-6)]Man(b1-4)GlcNAc(b1-4)[Fuc(a1-6)]GlcNAc
# How it was run: as §1
# [21] = target: Gal(b1-3)[Fuc(a1-4)]GlcNAc(b1-3)Gal(b1-3)[Fuc(a1-4)]GlcNAc
# How it was run: as §1
# [22] = target: Gal(b1-3)[Fuc(a1-4)]GlcNAc(b1-3)Gal(b1-4)[Fuc(a1-3)]GlcNAc
# How it was run: as §1
# [23] = target: Gal(b1-3)[Fuc(a1-4)]GlcNAc(b1-6)GalNAc
# How it was run: as §1
# [24] = target: Gal(b1-3)[GlcNAc(b1-6)]GalNAc
# How it was run: as §1
# [25] = target: Gal(b1-3)[Neu5Ac(a2-6)]GalNAc
# How it was run: as §1
# [26] = target: Gal(b1-3)[Neu5Ac(a2-6)]GlcNAc(b1-4)Gal(b1-4)Glc
# How it was run: as §1
# [27] = target: Gal(b1-3)[Neu5Ac(b2-6)]GalNAc
# How it was run: as §1
# Gal(b1-4)Gal = target: Gal(b1-4)Gal
# How it was run: as §1
# [28] = target: Gal(b1-4)GalNAc(a1-3)[Fuc(a1-2)]Gal(b1-4)GlcNAc
# How it was run: as §1
# [29] = target: Gal(b1-4)GalNAc(b1-3)[Fuc(a1-2)]Gal(b1-4)GlcNAc
# How it was run: as §1
# Gal(b1-4)Glc = target: Gal(b1-4)Glc
# How it was run: as §1
# Gal(b1-4)Glc6S = target: Gal(b1-4)Glc6S
# How it was run: as §1
# Gal(b1-4)GlcNAc = target: Gal(b1-4)GlcNAc
# How it was run: as §1
# [30] = target: Gal(b1-4)GlcNAc(a1-6)Gal(b1-4)GlcNAc
# How it was run: as §1
# Gal(b1-4)GlcNAc(b1-2)Man = target: Gal(b1-4)GlcNAc(b1-2)Man
# How it was run: as §1
# [31] = target: Gal(b1-4)GlcNAc(b1-2)Man(a1-3)Man(b1-4)GlcNAc(b1-4)GlcNAc
# How it was run: as §1
binder,measurement,setting,value
B1,glycan array binding signal (z-score),[1],1.57
same,glycan array binding signal (z-score),[2],1.25
same,glycan array binding signal (z-score),[3],0.096
same,glycan array binding signal (z-score),[4],3.15
same,glycan array binding signal (z-score),[5],-0.44
same,glycan array binding signal (z-score),[6],0.094
same,glycan array binding signal (z-score),[7],-0.813
same,glycan array binding signal (z-score),[8],-0.057
same,glycan array binding signal (z-score),[9],0.834
same,glycan array binding signal (z-score),[10],0.835
same,glycan array binding signal (z-score),[11],0.878
same,glycan array binding signal (z-score),[12],-0.7
same,glycan array binding signal (z-score),[13],-0.512
same,glycan array binding signal (z-score),[14],-0.22
same,glycan array binding signal (z-score),[15],-0.802
same,glycan array binding signal (z-score),[16],-0.687
same,glycan array binding signal (z-score),[17],-0.358
same,glycan array binding signal (z-score),Gal(b1-3)GlcNAc6S,0.367
same,glycan array binding signal (z-score),[18],-0.367
same,glycan array binding signal (z-score),[19],1.04
same,glycan array binding signal (z-score),[20],0.607
same,glycan array binding signal (z-score),[21],0.552
same,glycan array binding signal (z-score),[22],0.672
same,glycan array binding signal (z-score),[23],-0.044
same,glycan array binding signal (z-score),[24],0.063
same,glycan array binding signal (z-score),[25],-0.153
same,glycan array binding signal (z-score),[26],-0.363
same,glycan array binding signal (z-score),[27],0.033
same,glycan array binding signal (z-score),Gal(b1-4)Gal,-0.987
same,glycan array binding signal (z-score),[28],-0.441
same,glycan array binding signal (z-score),[29],-1.57
same,glycan array binding signal (z-score),Gal(b1-4)Glc,-0.014
same,glycan array binding signal (z-score),Gal(b1-4)Glc6S,-0.759
same,glycan array binding signal (z-score),Gal(b1-4)GlcNAc,0.108
same,glycan array binding signal (z-score),[30],-0.984
same,glycan array binding signal (z-score),Gal(b1-4)GlcNAc(b1-2)Man,0.343
same,glycan array binding signal (z-score),[31],-0.093

# Nothing new here: an excerpt of the list.
binder,measurement,setting,value
B1,glycan array binding signal (z-score),Gal(b1-4)Glc,-0.014
same,glycan array binding signal (z-score),Gal(b1-4)Glc6S,-0.759
